Measured values reported in PubChem BioAssay AID602254 (Broad Institute, 2012).
Out of some 1,000 compounds screened, fewer than 10 were called active.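 Rule for the calls: active = fitted half-maximal concentration no higher than twice the top valid tested dose, with signal falling; inconclusive = flat curve with 30 to 70% inhibition, or poor fit; inactive = the rest.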 Some of the results follow. Entries with a potency or affinity are not part of this list.

Biological target: Golgi-associated PDZ and coiled-coil motif-containing protein (Homo sapiens) (UniProt Q9HD26)
Experiment: blockers of CAL PDZ–TMR peptide complex – biochemical, fluorescence polarization, untagged CAL PDZ, cherry-pick, set 2, dose response (AID 602254);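 note: 0% = DMSO neutral control and -100% = unlabeled peptide PRC23 positive control; more negative means stronger blocking of peptide binding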
Details: Purified CAL PDZ; at 60 µM (top of the series)

Activity change, negative = inhibition, inactive:
Cn1c(=O)oc2cc(S(=O)(=O)N3CCC(C(=O)NCc4ccccc4Cl)CC3)ccc21 -1.41%
CCCCCN1CSC(=S)N(Cc2ccccc2)C1 -0.886%
O=C(C1CC(=O)N(c2ccc3c(c2)OCCO3)C1)N1CCN(c2ccccc2)CC1 (stereo unspecified) 0.502%
COCCNC(=O)c1cc2cc(Br)cc(Br)c2oc1=O -1.57%
COc1ccc(CNc2ccc(-c3ccccc3OC)nn2)cc1 7.46%
CCc1ccc(NC(=S)NCc2ccccc2)cc1 4.25%
COc1ccc(C(CNC(=O)C2COc3ccccc3O2)N2CCCC2)cc1 (stereo unspecified) 0.222%
CC(CC(=O)O)CC(=O)Nc1nncs1 (stereo unspecified) -2.91%
CC(=O)N1CCc2cc(S(=O)(=O)NCC(=O)NCc3ccc(Cl)cc3)ccc21 -0.918%
O=C(CCN1C(=O)/C(=C/c2cccs2)SC1=S)N1CCCCC1 2.71%
Cc1ccc(N(C)C(=O)C2CCCN2S(=O)(=O)c2cccc3nsnc23)cc1 (stereo unspecified) 0.114%
N#CCC(=O)Nc1ccc(C(=O)OCC(=O)NC(=O)Nc2ccc3c(c2)OCCO3)cc1 3.72%
O=C(c1ccc(-c2ccccc2)cc1)N1CCN(c2ccccn2)CC1 3.69%
Cc1cc(C)c(C#N)c(Nc2cccc(C)c2C)n1 3.29%
CCN(C(=O)c1ccc(NC(=O)Cc2ccccc2)cc1)c1ccccc1 1.07%
Cc1nn(CC(=O)NCCc2ccccc2)c(=O)c2cccn12 2.33%
COc1ccc(CCC(=O)Nc2ncc(C)s2)cc1OC -1.11%
COc1ccccc1N1CCN(/N=C/c2ccc(O)cc2O)CC1 -1.14%
CCC(=O)N1CCc2cc(Br)cc(S(=O)(=O)N3CCCCC3CC)c21 (stereo unspecified) -1.65%
COc1cc(N)ccc1Cc1ccc(N)cc1OC -0.642%
Cc1cccc(-c2ncc(CN3CCCC(CO)(Cc4cccc(Cl)c4)C3)cn2)c1 (stereo unspecified) 2.64%
O=C(NCCN1CCOCC1)C(=O)NCC1OCCN1S(=O)(=O)c1ccc(F)cc1 (stereo unspecified) 4.18%
O=C(COc1ccc2cc(Br)ccc2c1)N1CCOCC1 0.913%
COC(=O)c1ccc(OCC(O)CN2CCc3cc(OC)c(OC)cc3C2c2ccccc2)cc1 (stereo unspecified) 2.58%
NC(=O)c1ccc(NC(=O)COC(=O)C2CCN(S(=O)(=O)c3cccs3)CC2)cc1 0.324%
O=C1NC(=O)/C(=C\c2cn(Cc3ccccc3F)c3ccccc23)N1 -1.51%
Cc1nc2c(c(C)nn2-c2ccccc2)c(C)c1C -4.68%
COc1ccccc1OCC(O)Cn1nc(C)cc1C (stereo unspecified) 0.574%
CCCOC(=O)c1ccc(NC(=O)C2CCCO2)cc1 (stereo unspecified) 0.564%
CCC(=O)Nc1cccc(NC(=O)c2ccc3c(c2)OCO3)c1 0.613%
COc1ccccc1NC(=S)NNC(=O)c1ccc(Cl)cc1Cl 3.15%
CCCC(=O)N1CCN(c2ccc(NC(=S)NC(=O)c3cccc(C)c3)cc2)CC1 4.12%
CC1c2cccn2CCN1S(=O)(=O)c1ccc(F)cc1 (stereo unspecified) -0.77%
CC(C)CNC(=S)NNC(=O)CC(C)O (stereo unspecified) 1.27%
CC(NC(=S)NC(=O)c1ccccc1Br)c1ccccc1 (stereo unspecified) 1.12%
O=C(COc1ccc(Cl)cc1)c1ccc(O)cc1O 0.513%
Cc1ccc(Cl)c(NC(=O)COC(=O)C2CCC2)c1Cl -2.31%
COc1ccc(/C=C/c2noc(-c3ccccc3OC(C)=O)n2)cc1 -0.883%
CC(=O)c1cccc(NC(=O)CCNC(=O)c2cccc(C)c2)c1 -1.3%
CCc1nnc(NC(=O)c2cc(S(=O)(=O)N3CCCCC3)ccc2C)s1 1.84%
O=C(Nc1ccc2c(c1)CCC2)c1ncoc1-c1ccccc1F -1.28%
CCOc1ccc(S(=O)(=O)NC(C)C(=O)NCc2ccc3c(c2)OCO3)cc1 (stereo unspecified) -0.709%
COc1cc(COCC(O)CN2CCOCC2)cc(OC)c1OC (stereo unspecified) -2.47%
Cc1cccc(NC(=O)C2CCN(S(C)(=O)=O)CC2)c1C -0.527%
COc1ccc(S(=O)(=O)N2CCOC2CNC(=O)C(=O)NCc2ccncc2)cc1 (stereo unspecified) -0.076%
CCN1C(=O)CS/C1=N\S(=O)(=O)c1ccccc1 4.08%
CCN(CC(=O)Nc1cccc(OC)c1)CC(=O)Nc1ccc(C)cc1Cl -6.97%
COc1cc(SC)ccc1C(=O)N1CCN(Cc2ccc3c(c2)OCO3)CC1 1.09%
COc1cc(OC)c(C(=O)NCc2ccc3c(c2)OCO3)cc1OC 1.28%
O=C(c1cc(COc2ccccc2)on1)N1CCCC(CN2CCOCC2)C1 (stereo unspecified) 2.19%
CC1CCCCC12NC(=O)N(CC(=O)OCc1cccc(F)c1)C2=O (stereo unspecified) -1.32%
O=C(Nc1ccccc1N1CCOCC1)c1cccnc1 3.51%
O=C(NC1CCCC1)C(c1ccccn1)N(Cc1ccc(F)cc1)C(=O)c1csnn1 (stereo unspecified) -1.12%
O=C(NC1CCN(Cc2ccccc2)C1)c1cc(S(=O)(=O)N2CCOCC2)ccc1Cl (stereo unspecified) 1.45%
O=C(COC(=O)c1cn(-c2ccccc2)nc1-c1ccccc1)Nc1ncc(Cl)cc1Cl -1.75%
Cc1ccc(NC(=S)NC(=O)C2CC2)cc1Cl 1.65%
Cc1cc(NS(=O)(=O)c2c(C(=O)N3CCOCC3)c(C)n(C)c2C)ccc1Br 2.18%
Cc1ccccc1OCC(=O)OCC(=O)c1cc(C)n(C2CC2)c1C -0.267%
Cc1ccc(NC(=O)C(NC2CCCC2)c2ccccc2)cc1Cl (stereo unspecified) -0.149%
O=C(CNC(=O)c1ccccc1Cl)N/N=C/c1ccc2c(c1)OCO2 1.37%
Cc1ccc(C(=O)NCC(c2cccs2)N(C)C)cc1S(=O)(=O)N1CCOCC1 (stereo unspecified) 1.91%

5 neighbouring entries from above, for reference:
Activity change, negative = inhibition, inactive:
Cc1ccc(NC(=S)NC(=O)C2CC2)cc1Cl 1.65%
Cc1cc(NS(=O)(=O)c2c(C(=O)N3CCOCC3)c(C)n(C)c2C)ccc1Br 2.18%
Cc1ccccc1OCC(=O)OCC(=O)c1cc(C)n(C2CC2)c1C -0.267%
Cc1ccc(NC(=O)C(NC2CCCC2)c2ccccc2)cc1Cl (stereo unspecified) -0.149%
O=C(CNC(=O)c1ccccc1Cl)N/N=C/c1ccc2c(c1)OCO2 1.37%
